Data as given in patent US20250333782A1 (ILLUMINA, INC., priority 2022, published 2025).
Some results were stated once for a whole list of compounds, not compound by compound.

System: 5caCpG dimer
Assay: Amine borane reduction kinetics on 5caCpG
Conditions: 0.5 mM 5caCpG, borane 50 mM or 100 mM, NaOAc buffer pH 4.3, 25° C., RP-UHPLC; FIG. 3

Row | SMILES | time required for consumption of 50% of 5caCpG (t50)
1 | B.c1ccncc1 [PyB, pyridine borane, reference compound] | less than 40 minutes
2 | [BH3-][n+]1ccc(C)cc1 | less than 40 minutes
